# BindingDB's records for doi:10.1124/mol.63.6.1223 (Case Western Reserve University, 2003)
# Protein sequences, listed by entry. Tags and fused reporters are not part of them.
# UniProt P41595, whole entry: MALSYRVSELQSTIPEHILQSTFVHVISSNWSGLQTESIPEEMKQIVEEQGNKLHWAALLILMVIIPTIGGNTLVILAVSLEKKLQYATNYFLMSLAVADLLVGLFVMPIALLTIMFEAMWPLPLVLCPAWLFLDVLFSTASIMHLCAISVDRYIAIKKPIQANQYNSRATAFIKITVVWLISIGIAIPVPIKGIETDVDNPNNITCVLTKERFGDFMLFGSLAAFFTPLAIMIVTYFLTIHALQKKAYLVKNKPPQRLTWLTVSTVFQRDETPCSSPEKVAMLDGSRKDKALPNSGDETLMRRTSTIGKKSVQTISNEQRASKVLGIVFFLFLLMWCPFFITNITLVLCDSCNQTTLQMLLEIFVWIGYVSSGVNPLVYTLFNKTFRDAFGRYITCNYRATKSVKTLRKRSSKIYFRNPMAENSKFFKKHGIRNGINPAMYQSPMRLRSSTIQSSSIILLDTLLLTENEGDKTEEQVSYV
# Biological target: 5-hydroxytryptamine receptor 2B (Homo sapiens, UniProt P41595)
compound,measurement,value
CC[C@@H](CO)NC(=O)[C@@H]1C=C2c3cccc4c3c(cn4C)C[C@H]2N(C)C1,Ki,150 nM
